Our source for the binding values is article PMC5444011.

Results are given in words; binding and its absence hold for the method and conditions named. In cells and extracts the contact can be indirect. A result given as binding can be weak or reduced; the word gives no strength.

Test [1] addresses N-terminally HA-tagged MAF1b expressed off the MAF1b promoter in type I RH tachyzoites (Toxoplasma gondii). The test can be described thus: co-IP; anti-HA beads with lysates of HeLa cells infected 16 to 24 h with RH::NHA-MAF1b, RH::MAF1b-CHA or parental RH (or uninfected); low-pH elution; Western blot. (In general: Immunoblotting shows a protein as a band on a membrane.)
In test [2] the target is N-terminally HA-tagged MAF1b exogenously expressed in mouse embryonic fibroblasts (Toxoplasma gondii). Description: co-IP; anti-HA beads with lysates of MEFs ± HA-MAF1b as for the first IPs; low-pH elution; Western blot.

B1: GRA7 (Toxoplasma gondii parasite protein) (protein, UniProt O00933 27-236)
chain: ATASDDELMSRIRNSDFFDGQAPVDSLRPTNAGVDSKGTDDHLTTSMDKASVESQLPRREPLETEPDEQEEVHFRKRGVRSDAEVTDDNIYEEHTDRKVVPRKSEGKRSFKDLLKKLALPAVGMGASYFAADRLVPELTEEQQRGDEPLTTGQNVGTVLGFAALAAAAAFLGMGLTRTYRHFSPRKNRSRQPALEQEVPESGEDGEDARQ
For B1, the binding entry in test [1] is “no binding”.

B2: SAM50 (mouse, endogenous in MEFs) (protein, UniProt Q8BGH2 1-469)
chain: MGTVHARSLEPLPSSGTDFGALGEEAEFVEVEPEAKQEILENKDVVVQHVHFDGLGRTKDDIIICEIGEVFKAKNLIEVMRRSHEAREKLLRLGIFRQVDVLIDTCHGEDALPNGLDVTFEVTELRRLTGSYNTMVGNNEGSMVLGLKLPNLLGRAEKVTFQFSYGTKETSYGLSFFKPQPGNFERNFSVNLYKVTGQFPWSSLRETDRGVSAEYSFPLWKTSHTVKWEGVWRELGCLSRTASFAVRKESGHSLKSSLSHAMVIDSRNSSILPRRGALFKVNQELAGYTGGDVSFIKEDFELQLNKPLALDSVFSTSLWGGMLVPIGDKPSSIADRFYLGGPTSVRGFSMHSIGPQSEGDYLGGEAYWAGGLHLYTPLPFRPGQGGFGELFRTHFFLNAGNLCNLNYGEGPKAHIRKLAECIRWSYGAGVVLRLGNIARLELNYCIPMGVQGGDRICDGVQFGAGIRFL
B2: in test [2], the binding result was “binds”.

B3: SAM50 (human, endogenous in HeLa) (protein, UniProt Q9Y512 1-469)
chain: MGTVHARSLEPLPSSGPDFGGLGEEAEFVEVEPEAKQEILENKDVVVQHVHFDGLGRTKDDIIICEIGDVFKAKNLIEVMRKSHEAREKLLRLGIFRQVDVLIDTCQGDDALPNGLDVTFEVTELRRLTGSYNTMVGNNEGSMVLGLKLPNLLGRAEKVTFQFSYGTKETSYGLSFFKPRPGNFERNFSVNLYKVTGQFPWSSLRETDRGMSAEYSFPIWKTSHTVKWEGVWRELGCLSRTASFAVRKESGHSLKSSLSHAMVIDSRNSSILPRRGALLKVNQELAGYTGGDVSFIKEDFELQLNKQLIFDSVFSASFWGGMLVPIGDKPSSIADRFYLGGPTSIRGFSMHSIGPQSEGDYLGGEAYWAGGLHLYTPLPFRPGQGGFGELFRTHFFLNAGNLCNLNYGEGPKAHIRKLAECIRWSYGAGIVLRLGNIARLELNYCVPMGVQTGDRICDGVQFGAGIRFL
With B3, in test [1], the binding result is recorded as “binds”.
